Reference: patent US6538013B2, “Acyclic and cyclic guanidine-and acetamidine derivatives, their preparation and their use as pesticides, esp. as parasiticides” (Novartis Animal Health US, Inc., priority 1998, dated 2003)
Some entries share one result that the patent states for a list of compounds. At least one structure is not confirmed: it was looked up by name or label, or the drawing left a doubt.

System: cat fleas [Ctenocephalides felis (Bouche)]
Assay: Control of adult fleas in cats by means of pour-on application
Format: in vivo
Conditions: 20 mg/kg body weight
Protocol: Test protocol for each test compound: in order to determine the effectiveness of the test compounds against fully grown fleas, four groups each of two cats are used. Each cat is infested with 100 cat fleas [Ctenocephalides felis (Bouche)] and treated with 20 mg of active ingredient per kg body weight. The treatment is effected by applying the formulation to a locally limited area on the back of the cat's neck. While one group is infested with fleas but is treated only with a placebo, that is to say a formulation without active ingredient, and serves as control, another group is treated with nitenpyram as comparison substance; the two remaining groups receive the test compounds. Evaluation is made in each case by combing surviving fleas out of the animal's coat and comparing the number counted with the number of fleas in the control group and in the group treated with nitenpyram. […] On day +1, each animal is combed and the number of surviving fleas is determined; the surviving fleas are then replaced on the same cat and after 24 hours the combing and evaluation are repeated. […] The described procedure is then repeated on days +3, +7, +9, +14, +21, +28, +35, +42, +49, +56 and +63 and in this way the effectiveness and duration of action are determined. The effectiveness is determined in accordance with the following formula: [formula]

Row | SMILES | period of full action (100% effectiveness)
1 | CCCCCCCC(=O)OCOC(=O)N(C)C(=C[N+](=O)[O-])N(CC)Cc1ccc(Cl)nc1 [Compound 1.011] | at least 7 weeks
2 | CCCCCCCCCCCC(=O)OCOC(=O)N(C)C(=C[N+](=O)[O-])N(CC)Cc1ccc(Cl)nc1 [Compound 1.012] | at least 7 weeks
